# Assay results reported in US7662584, “Increased production of secreted proteins by recombinant eukaryotic cells” (Danisco US Inc.).
# Construct, isoform or probe ends are uncertain for at least one entry. A negative result means that nothing was seen under these conditions.
# Molecular target: malE (maltose-binding protein) (Escherichia coli) (UniProt P0AEX9)
# Experiment: EMSA
# Details: malE alone control, 2 ug; probe assigned from pdi1 promoter UPR element area; purified recombinant protein; protein details: pMAL system, New England Biolabs; label: 32P-dCTP Klenow fill-in
sequence,measurement,value
CGGCTGAACCAGCGCGGCAGCCAGATGTGGCCAAAGGG (double strand) [pdiUPREI+II],binding result,no binding
